Test results reported in patent US20180221443A1.

How the values were obtained:
GST-HDAC3 [1] = assay: conclusion from the GST pull-down of FIG. 4E
GST-HDAC3 [2] = assay: GST pull-down from 293T lysates co-expressing GST-HDAC3 and Flag-sLZIP, immunoblot (FIG. 4E)
GST-HDAC3 [3] = assay: GST pull-down from 293T lysates co-expressing GST-HDAC3 and Flag-sLZIP, with or without 10 nM RZD for 24 h (FIG. 5D)

binding (GST-HDAC3 [1]): binds
binding (GST-HDAC3 [2]): binds
binding (GST-HDAC3 [3]): binds
B1: Flag-sLZIP (protein, not shown: small tags and cut ends)
chain: MELELDAGDQDLLAFLLEESGDLGTAPDEAVRAPLDWALPLSEVPSDWEVDDLLCSLLSPPASLNILSSSNPCLVHHDHTYSLPRETVSMDLESESCRKEGTQMTPQHMEELAEQEIARLVLTDEEKSLLEKEGLILPETLPLTKTEEQILKRVRRKIRNKRSAQESRRKKKVYVGGLESRVLKYTAQNMELQNKVQLLEEQNLSLLDQLRKLQAMVIEISNKTSSSSMYSSDTRGSLPAEHGVLSRQLRALPSEDPYQLELPALQSEVPKDSTHQWLDGSDCVLQAPGNTSCLLHYMPQAPSAEPPLEWPFPDLFSEPLCRGPILPLQANLTRKGGWLPTGSPSVILQDRYSG

Results are given in words; binding and its absence hold for the method and conditions named. In cells and extracts the contact can be indirect. Binding can be weak; no strength is given. Tags and fused reporters may be left off the sequences shown.
